Measurements taken from the supplement of paper PMC12823440, “Inhibitors supercharge kinase turnover through native proteolytic circuits” (Nature, 2025).
Structures can show the parent of a compound that is named as a salt. The list shows a part of the results. The calls rarely recur for the same compound in another form.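 In K562 cells expressing nanoluciferase-fused kinases, luminescence was recorded at 4 h intervals between 2 and 18 h, normalized as percent of control with DMSO at 100% and a positive control at 0%. A significant (2 sigma) signal drop marks a time point as decreased. The authors' rule for a hit is not shown and takes in more than the number of time points.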

By UniProt entry, the sequences of proteins in these tests, tags left out. Where a name states a change or a piece, a line headed by the entry shows the natural chain unless it says otherwise.
UniProt P29317, whole entry: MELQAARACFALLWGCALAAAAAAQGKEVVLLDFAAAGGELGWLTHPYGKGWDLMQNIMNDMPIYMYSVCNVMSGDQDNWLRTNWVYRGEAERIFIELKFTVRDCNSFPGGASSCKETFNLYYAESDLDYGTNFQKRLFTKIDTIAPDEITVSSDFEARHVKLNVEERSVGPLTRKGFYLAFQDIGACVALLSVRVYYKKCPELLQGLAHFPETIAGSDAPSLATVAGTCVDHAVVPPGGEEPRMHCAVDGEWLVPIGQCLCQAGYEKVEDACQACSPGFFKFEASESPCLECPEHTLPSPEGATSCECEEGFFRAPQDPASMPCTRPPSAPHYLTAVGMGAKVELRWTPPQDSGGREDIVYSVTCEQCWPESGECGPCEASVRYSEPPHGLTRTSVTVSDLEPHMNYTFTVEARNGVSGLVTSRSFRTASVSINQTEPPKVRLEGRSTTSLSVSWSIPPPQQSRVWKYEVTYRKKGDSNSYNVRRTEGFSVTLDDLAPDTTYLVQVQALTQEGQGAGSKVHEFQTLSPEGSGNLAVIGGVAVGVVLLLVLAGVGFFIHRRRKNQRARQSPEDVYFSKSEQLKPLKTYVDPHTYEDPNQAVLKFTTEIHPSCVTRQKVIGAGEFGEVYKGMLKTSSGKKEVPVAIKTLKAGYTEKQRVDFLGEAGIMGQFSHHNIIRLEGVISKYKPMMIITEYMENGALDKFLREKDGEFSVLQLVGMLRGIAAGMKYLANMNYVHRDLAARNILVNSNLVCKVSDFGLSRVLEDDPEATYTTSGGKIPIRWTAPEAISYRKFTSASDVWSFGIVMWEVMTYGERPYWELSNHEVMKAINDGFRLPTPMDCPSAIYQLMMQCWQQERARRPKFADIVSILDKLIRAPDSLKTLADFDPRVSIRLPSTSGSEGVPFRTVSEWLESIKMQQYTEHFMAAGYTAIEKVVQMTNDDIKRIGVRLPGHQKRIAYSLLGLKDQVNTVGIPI
UniProt P21860, whole entry: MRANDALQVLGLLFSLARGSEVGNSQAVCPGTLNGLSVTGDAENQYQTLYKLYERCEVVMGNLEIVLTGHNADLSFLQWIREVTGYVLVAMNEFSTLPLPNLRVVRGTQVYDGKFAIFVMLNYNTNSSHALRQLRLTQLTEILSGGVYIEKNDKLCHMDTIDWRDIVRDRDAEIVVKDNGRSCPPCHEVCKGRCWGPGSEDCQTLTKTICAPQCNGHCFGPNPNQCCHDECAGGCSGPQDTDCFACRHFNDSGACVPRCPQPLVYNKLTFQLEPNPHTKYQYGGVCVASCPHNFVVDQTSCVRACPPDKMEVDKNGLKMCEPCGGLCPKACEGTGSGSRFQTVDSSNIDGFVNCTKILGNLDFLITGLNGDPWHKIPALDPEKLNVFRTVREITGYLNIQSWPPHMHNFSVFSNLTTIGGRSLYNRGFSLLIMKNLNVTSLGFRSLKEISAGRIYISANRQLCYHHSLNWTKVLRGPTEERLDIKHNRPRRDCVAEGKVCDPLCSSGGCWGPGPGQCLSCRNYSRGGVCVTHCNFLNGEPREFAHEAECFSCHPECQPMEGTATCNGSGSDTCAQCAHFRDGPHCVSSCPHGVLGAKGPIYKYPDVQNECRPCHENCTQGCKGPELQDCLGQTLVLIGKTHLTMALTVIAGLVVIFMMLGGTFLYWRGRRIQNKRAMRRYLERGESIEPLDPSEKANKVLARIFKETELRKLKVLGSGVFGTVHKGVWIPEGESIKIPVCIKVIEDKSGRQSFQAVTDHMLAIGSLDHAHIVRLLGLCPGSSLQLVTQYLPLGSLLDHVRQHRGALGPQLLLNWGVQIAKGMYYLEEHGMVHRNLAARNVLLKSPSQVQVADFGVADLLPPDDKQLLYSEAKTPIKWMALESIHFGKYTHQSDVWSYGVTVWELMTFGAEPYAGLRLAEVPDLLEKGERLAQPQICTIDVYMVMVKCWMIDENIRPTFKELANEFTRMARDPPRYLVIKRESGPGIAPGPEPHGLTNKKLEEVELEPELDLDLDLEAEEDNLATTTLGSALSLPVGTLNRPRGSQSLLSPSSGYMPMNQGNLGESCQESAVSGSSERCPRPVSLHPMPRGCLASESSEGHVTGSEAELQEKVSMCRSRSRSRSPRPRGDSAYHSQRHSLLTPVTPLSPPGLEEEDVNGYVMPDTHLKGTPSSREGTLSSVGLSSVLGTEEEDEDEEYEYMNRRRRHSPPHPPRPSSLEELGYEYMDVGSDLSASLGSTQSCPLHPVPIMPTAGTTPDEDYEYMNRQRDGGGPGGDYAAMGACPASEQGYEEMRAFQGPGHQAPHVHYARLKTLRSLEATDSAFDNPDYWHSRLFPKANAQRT
UniProt Q15303, whole entry R711C: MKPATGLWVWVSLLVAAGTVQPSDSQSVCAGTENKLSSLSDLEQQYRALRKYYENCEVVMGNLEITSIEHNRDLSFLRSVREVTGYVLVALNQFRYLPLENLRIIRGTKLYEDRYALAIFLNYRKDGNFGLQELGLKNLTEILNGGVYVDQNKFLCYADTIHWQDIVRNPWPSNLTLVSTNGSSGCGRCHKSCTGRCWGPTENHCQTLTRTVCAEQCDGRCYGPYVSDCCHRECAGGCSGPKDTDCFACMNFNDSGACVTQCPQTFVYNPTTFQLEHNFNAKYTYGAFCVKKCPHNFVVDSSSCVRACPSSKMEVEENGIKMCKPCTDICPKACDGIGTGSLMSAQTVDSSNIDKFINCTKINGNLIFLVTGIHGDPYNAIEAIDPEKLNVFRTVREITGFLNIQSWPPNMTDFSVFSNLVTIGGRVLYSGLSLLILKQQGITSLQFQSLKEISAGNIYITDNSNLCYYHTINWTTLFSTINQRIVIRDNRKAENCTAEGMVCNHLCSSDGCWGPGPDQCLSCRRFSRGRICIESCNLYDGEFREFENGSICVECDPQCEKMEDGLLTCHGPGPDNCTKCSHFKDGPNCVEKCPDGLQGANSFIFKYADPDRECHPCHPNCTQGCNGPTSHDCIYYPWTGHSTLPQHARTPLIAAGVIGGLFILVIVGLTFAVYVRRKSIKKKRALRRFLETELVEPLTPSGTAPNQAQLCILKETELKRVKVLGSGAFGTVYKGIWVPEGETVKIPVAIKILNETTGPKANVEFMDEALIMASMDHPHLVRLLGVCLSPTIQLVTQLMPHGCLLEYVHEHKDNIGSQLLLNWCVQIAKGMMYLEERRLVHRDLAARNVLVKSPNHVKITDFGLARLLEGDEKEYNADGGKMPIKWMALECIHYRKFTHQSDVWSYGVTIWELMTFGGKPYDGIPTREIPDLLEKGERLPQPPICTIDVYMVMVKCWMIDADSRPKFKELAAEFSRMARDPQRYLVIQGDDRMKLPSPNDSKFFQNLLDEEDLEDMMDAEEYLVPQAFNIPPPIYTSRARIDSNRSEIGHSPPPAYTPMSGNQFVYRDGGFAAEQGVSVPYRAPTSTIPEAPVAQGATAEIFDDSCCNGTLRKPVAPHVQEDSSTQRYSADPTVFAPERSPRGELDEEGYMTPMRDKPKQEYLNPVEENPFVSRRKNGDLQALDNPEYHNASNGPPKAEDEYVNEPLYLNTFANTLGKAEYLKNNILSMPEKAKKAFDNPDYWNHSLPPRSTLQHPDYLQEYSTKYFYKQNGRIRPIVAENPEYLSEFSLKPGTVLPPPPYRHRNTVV
UniProt O75460: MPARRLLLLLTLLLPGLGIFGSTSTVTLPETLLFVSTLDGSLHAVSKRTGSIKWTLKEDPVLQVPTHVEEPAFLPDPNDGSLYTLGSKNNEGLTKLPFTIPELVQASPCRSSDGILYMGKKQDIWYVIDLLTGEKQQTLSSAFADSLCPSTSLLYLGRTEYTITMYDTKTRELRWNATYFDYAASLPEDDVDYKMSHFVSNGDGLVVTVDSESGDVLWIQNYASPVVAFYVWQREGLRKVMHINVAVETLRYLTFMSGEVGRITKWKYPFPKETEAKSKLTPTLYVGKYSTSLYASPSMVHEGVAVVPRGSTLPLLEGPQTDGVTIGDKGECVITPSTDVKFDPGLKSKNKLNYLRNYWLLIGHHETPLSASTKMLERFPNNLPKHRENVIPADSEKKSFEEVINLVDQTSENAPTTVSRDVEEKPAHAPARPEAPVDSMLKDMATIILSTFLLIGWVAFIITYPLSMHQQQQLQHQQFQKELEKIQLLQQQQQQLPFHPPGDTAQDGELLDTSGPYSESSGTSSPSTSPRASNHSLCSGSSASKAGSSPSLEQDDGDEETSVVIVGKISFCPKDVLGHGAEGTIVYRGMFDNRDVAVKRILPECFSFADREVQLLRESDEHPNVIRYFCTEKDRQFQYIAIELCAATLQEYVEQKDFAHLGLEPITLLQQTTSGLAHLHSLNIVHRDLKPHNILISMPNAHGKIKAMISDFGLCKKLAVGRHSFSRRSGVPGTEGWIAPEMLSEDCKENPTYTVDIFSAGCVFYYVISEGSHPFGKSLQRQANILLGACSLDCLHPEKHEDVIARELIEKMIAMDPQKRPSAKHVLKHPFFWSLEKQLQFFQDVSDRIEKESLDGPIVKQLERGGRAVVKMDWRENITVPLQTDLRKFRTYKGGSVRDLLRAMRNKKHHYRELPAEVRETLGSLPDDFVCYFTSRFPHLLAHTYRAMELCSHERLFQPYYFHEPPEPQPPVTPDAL
UniProt P21802, whole entry, looked up: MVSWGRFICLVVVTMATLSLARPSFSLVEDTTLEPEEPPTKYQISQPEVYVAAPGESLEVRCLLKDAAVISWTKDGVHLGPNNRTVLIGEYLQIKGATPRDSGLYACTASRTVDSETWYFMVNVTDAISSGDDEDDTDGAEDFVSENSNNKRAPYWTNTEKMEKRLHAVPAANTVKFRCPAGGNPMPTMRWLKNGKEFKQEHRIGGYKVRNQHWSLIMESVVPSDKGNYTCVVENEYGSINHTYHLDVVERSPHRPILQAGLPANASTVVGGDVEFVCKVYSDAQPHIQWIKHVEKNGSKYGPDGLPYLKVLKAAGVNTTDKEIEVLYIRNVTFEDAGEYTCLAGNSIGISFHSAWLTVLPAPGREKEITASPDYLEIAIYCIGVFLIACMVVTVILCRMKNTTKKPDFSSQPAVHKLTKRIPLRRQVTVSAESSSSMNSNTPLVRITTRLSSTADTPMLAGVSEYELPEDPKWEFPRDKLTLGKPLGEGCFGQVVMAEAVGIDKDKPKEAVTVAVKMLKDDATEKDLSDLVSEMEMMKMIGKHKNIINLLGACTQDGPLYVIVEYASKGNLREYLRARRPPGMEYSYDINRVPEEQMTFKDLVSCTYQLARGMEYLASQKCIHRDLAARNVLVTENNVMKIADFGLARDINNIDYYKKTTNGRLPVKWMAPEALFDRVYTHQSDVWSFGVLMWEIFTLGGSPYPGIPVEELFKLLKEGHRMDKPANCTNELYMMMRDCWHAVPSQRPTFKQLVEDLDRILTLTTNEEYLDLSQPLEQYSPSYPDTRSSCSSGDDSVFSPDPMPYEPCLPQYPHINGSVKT
UniProt P22607, whole entry, looked up: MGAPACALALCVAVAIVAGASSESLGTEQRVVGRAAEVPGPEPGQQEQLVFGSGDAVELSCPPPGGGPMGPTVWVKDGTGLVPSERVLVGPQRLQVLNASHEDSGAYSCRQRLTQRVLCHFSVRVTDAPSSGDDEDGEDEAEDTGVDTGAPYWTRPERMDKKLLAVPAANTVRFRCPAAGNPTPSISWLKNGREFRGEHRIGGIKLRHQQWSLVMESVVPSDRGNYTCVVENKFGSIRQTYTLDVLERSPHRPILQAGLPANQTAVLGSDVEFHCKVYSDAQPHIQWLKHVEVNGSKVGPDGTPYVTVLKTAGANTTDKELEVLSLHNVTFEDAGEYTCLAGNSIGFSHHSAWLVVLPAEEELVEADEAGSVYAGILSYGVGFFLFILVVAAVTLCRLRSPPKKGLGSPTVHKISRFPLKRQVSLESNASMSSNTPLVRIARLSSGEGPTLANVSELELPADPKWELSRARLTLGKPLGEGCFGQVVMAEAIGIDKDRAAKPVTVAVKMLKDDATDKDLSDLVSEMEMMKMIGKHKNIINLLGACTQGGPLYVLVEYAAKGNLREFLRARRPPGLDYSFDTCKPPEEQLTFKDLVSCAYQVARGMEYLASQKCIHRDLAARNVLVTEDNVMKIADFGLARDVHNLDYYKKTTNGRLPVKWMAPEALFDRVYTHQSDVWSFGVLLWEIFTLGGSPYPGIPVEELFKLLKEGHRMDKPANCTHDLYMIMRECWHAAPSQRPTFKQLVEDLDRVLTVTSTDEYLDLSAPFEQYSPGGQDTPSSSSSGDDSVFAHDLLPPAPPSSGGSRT

Legend:
Assay in all cases: number of time points (of 5) at which kinase-Nluc abundance scored as decreased, DMSO-normalised (count); higher = more persistent destabilization
Conditions in all cases: K562; 2-18 h
EGFR_L861Q = EGFR_L861Q (UniProt P00533)
EGFR_T790M = EGFR_T790M (UniProt P00533)
EPHA2 = EPHA2 (UniProt P29317)
ERBB3 = ERBB3 (UniProt P21860)
[1] = biological target: ERBB4_R711C (clone: ERBB4_mut) (UniProt Q15303)
ERN1 = ERN1 (UniProt O75460)
FGFR1 = FGFR1 (UniProt P11362)
FGFR2 = FGFR2 (UniProt P21802)
FGFR3 = FGFR3 (UniProt P22607)
FGR = FGR (UniProt P09769)

Measured: number of time points

NC(=O)c1ccc2[nH]ccc2c1 (10 µM)
0: all assays above

COc1cc(Nc2ncc(F)c(Nc3ccc4c(n3)N(COP(=O)(O)O)C(=O)C(C)(C)O4)n2)cc(OC)c1OC [Fostamatinib Disodium] (10 µM)
0: all assays above

O=Nc1c(-c2c(O)[nH]c3ccc(F)cc23)[nH]c2ccccc12 [5'-Fluoroindirubinoxime] (10 µM)
5: FGFR1 | FGFR2
0: all other assays above

CNC(=O)c1cc(COc2nnc(Nc3ccc(Cl)cc3)c3ccoc23)ccn1 [Telatinib] (10 µM)
0: all assays above

Nc1nc2ccc(Cl)cc2c2nc(-c3ccco3)nn12 (10 µM)
0: all assays above

Cc1c(NC(=O)c2cccn(-c3ccc(F)cc3)c2=O)ccc(Oc2ccnc(NC(=O)C3CC3)c2)c1C (2 µM)
2: FGFR1
4: ERBB3
1: [1]
0: all other assays above

Cc1cc(O)c2c(c1)C(=O)c1cc(O)cc(O)c1C2=O [Emodin] (10 µM)
0: all assays above

Cc1cc(CN2CCN(c3c(Br)cnc4nc(-c5ccc(N6CCN(C)CC6)cc5)[nH]c34)CC2)no1 (2.5 µM)
0: all assays above

NC(=O)c1nnc(N[C@@H]2CCCC[C@@H]2N)nc1Nc1cccc2cc[nH]c12 (10 µM)
0: all assays above

Cc1ccc(C(=O)Nc2ccc(Oc3cc4cnn(C)c4cc3-c3cn[nH]c3)c(F)c2)c(=O)n1-c1ccc(F)cc1 [Merestinib dihydrochloride] (2.5 µM)
0: all assays above

COc1cc2ncc(-c3ccccc3)nc2cc1OC [Tyrphostin AG1296] (10 µM)
0: all assays above

COc1cc(/C=C/C(=O)NCC(O)c2ccc(O)cc2)ccc1O (stereo not given) [N-Feruloyloctopamine] (2.5 µM)
0: all assays above

CCN1CCN(Cc2ccc(-c3cc4c(N[C@H](C)c5ccccc5)ncnc4[nH]3)cc2)CC1 (2.5 µM)
1: EGFR_L861Q | EPHA2
4: ERBB3
3: FGFR2
0: EGFR_T790M | FGFR3 | FGR
2: all other assays above

CCN1CCN(Cc2ccc(Nc3ncc(F)c(-c4cc(F)c5nc(C)n(C(C)C)c5c4)n3)nc2)CC1 [Abemaciclib (methanesulfonate)] (10 µM)
3: FGFR2
1: EGFR_L861Q
4: ERBB3 | [1] | ERN1
0: all other assays above

CCc1cc2c(cc1N1CCC(N3CCOCC3)CC1)C(C)(C)c1[nH]c3cc(C#N)ccc3c1C2=O [Alectinib] (10 µM)
0: all assays above

CN(C)CCCOc1ccc(-c2ccc3ncc4c(c3c2)n(C2CCOCC2)c(=O)n4C)cn1 (2 µM)
0: all assays above

Grouped by structure, the entries above with a furan ring, fused or not.
CNC(=O)c1cc(COc2nnc(Nc3ccc(Cl)cc3)c3ccoc23)ccn1 [Telatinib] (10 µM)
0: all assays above

Nc1nc2ccc(Cl)cc2c2nc(-c3ccco3)nn12 (10 µM)
0: all assays above

Next part.

N#CCC1CCN(c2nc(Nc3ccc(N4CCC(O)CC4)cc3)c3c(=O)[nH]ncc3n2)CC1 [Gusacitinib] (10 µM)
4: [1]
0: all other assays above

O=S(=O)(NCCCN1c2ccccc2CCc2ccc(Cl)cc21)c1ccc(OC(F)(F)F)cc1 (2.5 µM)
0: all assays above

COc1ccccc1-c1cc(Nc2cccc(CS(N)(=O)=O)c2)ncn1 (10 µM)
3: [1]
2: ERBB3 | FGFR2
1: EGFR_L861Q
0: all other assays above

COc1ccc2c(OCc3nnc4ccc(-c5ccccc5)nn34)ccnc2c1 (2 µM)
0: all assays above

CC[C@@H](Oc1nc(Oc2cc(C)cc(-c3cccc(CN)c3)c2)c(F)cc1F)C(=O)O (10 µM)
0: all assays above

Cn1cc(-c2ccc3c(c2)CCN3C(=O)Cc2cccc(C(F)(F)F)c2)c2c(N)ncnc21 (2.5 µM)
0: all assays above

C=CC(=O)Nc1cc(Nc2ncc(Cl)c(-c3c[nH]c4ccccc34)n2)c(OC)cc1N(C)CCN(C)C [Mutant EGFR inhibitor] (2.5 µM)
2: FGFR1
1: ERBB3 | FGFR2
0: all other assays above

O=C1NC(=O)/C(=C\c2cccc(C(F)(F)F)c2)S1 (2.5 µM)
0: all assays above

COc1ccc(-c2ccc3c(N4CCOCC4)nc(N4C[C@@H](C)O[C@@H](C)C4)nc3n2)cc1CO (2.5 µM)
0: all assays above

COc1cc2nccc(Oc3ccc(NC(=O)NC4CC4)c(Cl)c3)c2cc1C(N)=O [Lenvatinib] (10 µM)
0: all assays above

CNC(=O)c1ccc(C)c(-n2c(C)cc(OCc3ccc(F)cc3F)c(Br)c2=O)c1 (10 µM)
0: all assays above

O=C(O)CCC(=O)Nc1ccc(Br)cn1 [Bikinin] (10 µM)
0: all assays above

Cc1cc(Nc2ncnc3ccc(NC4=NC(C)(C)CO4)cc23)ccc1Oc1ccn2ncnc2c1 [Tucatinib] (2.5 µM)
0: all assays above

CCNc1nc(Nc2cc(F)c(C(=O)N3CCOCC3)cc2OC)ncc1C(F)(F)F [GNE-7915 (tosylate)] (10 µM)
0: all assays above

c1cc(-c2c[nH]c3nccc(N4CCC[C@@]5(CCCCN5)C4)c23)ncn1 (10 µM)
0: all assays above

Nc1ncnc2c1c(-c1cccc(OCc3ccccc3)c1)cn2C1CC(CN2CCC2)C1 (stereo not given) (2.5 µM)
0: all assays above

Oc1cc(O)c2cc(O)c(-c3cc(O)c(O)c(O)c3)[o+]c2c1 [Delphinidin (chloride)] (10 µM)
1: FGFR3
4: ERN1
3: EGFR_L861Q | FGR
0: all other assays above

CC(C)(O)CNc1ncc(-c2ccnc(Nc3ccnc(Cl)c3)n2)c(CC2CC2)n1 (2.5 µM)
0: all assays above
